{
  "source": "patent US11666589B2",
  "about": "“Pivarubicin and benzarubicin compositions” (Paradox Pharmaceuticals, Inc., priority 2020, dated 2023)",
  "test_system": "MDA-MB-231 cells",
  "assay": "MTT cytotoxicity, TNBC monolayer MDA-MB-231",
  "type": "cell-based",
  "settings": "Homo sapiens, MDA-MB-231, 48 h",
  "description": "Rottlerin treatment of cells, cell viability analysis by MTT [28] and immunoblot identification of protein expression were performed and described previously.\nBased upon the ability of pivarubicin to circumvent multiple mechanisms of resistance against doxorubicin, we then examined the efficacy of pivarubicin against TNBC in comparison to doxorubicin, using the following procedure, using two basal TNBC cell lines. MDA-MB-231 cells and SUM-159 cells were maintained under adherent monolayer growth conditions. Upon reaching 50% confluency, cells were treated for 48 h with the dose range of doxorubicin or pivarubicin as indicated in FIGS. 6A and 6B.\nIn the absence of specific receptor targets, the current treatment of metastatic TNBC relies on doxorubicin-based multidrug therapy, with only limited effectiveness. […] Once achieving a primary tumor volume of 150-190 mm^3, mice were randomized into three cohorts for treatment with the MTD of pivarubicin or doxorubicin, or the equivalent volume per body weight of vehicle.",
  "data": [
    {"smiles": "COc1cccc2c1C(=O)c1c(O)c3c(c(O)c1C2=O)C[C@@](O)(C(=O)CO)C[C@@H]3O[C@H]1C[C@H](N)[C@H](O)[C@H](C)O1", "note": "[Doxorubicin, reference compound]", "values": [
      {"measurement": "IC50", "value": 1000, "unit": "nM"}
    ]}
  ]
}
